{
  "source": "patent US20040203128A1",
  "about": "“Use of PP2A phosphatase modulators in the treatment of mental disorders” (priority 2002, published 2004)",
  "target": "GST-2E11 recombinant protein (fusion between a KCNQ2-15b polypeptide comprising exons 13, 14 and 15b and GST) (human)",
  "test": "solid phase overlay assay: 32P-labeled GST-PPP2R2C probe on blotted GST-2E11 (100 ng, 10 ng, 0.1 ng); band intensity proportional to the quantity loaded",
  "note": "Results are given in words; binding and its absence hold for the method and conditions named. Some binding calls cover weakened binding; strength is not graded here. Where a sequence is shown, tags or fusion partners need not be part of it.",
  "data": [
    {"binder": "GST-PPP2R2C radiolabeled recombinant protein (protein, not shown: a dimerising Fc or GST, 32P-phosphorylated in vitro with PKA and [32P]-γATP (site not stated)) GEDTDTRKINHSFLRDHSYVTEADIISTVEFNHTGELLATGDKGGRVVIFQREPESKNAPHSQGDYDVYSTFQSHEPEFDYLKSLEIEEKINKIKWLPQQNAAHSLLSTNDKTIKLWKITERDKRPEGYNLKDEEGKLKDLSTVTSLQVPVLKPMDLMVEVSPRRIFANGHTYHINSISVNSDCETYMSADDLRINLWHLAITDRSFNIVDIKPANMEDLTEVITASEFHPHHCNLFVYSSSKGSLRLCDMPAAALCDKHSKLFEEPEDPSNRSFFSEIISSVSDVKFSHSDRYMLTRDYLTVKVWDLNMEARPIETYQVHDYLRSKLCSLYENDCIFDKFECAWNGSDSVIMTGAYNNFFRMFDRNTKRDVTLEASRESSKPRAVLKPRRVCVGGKRRRDDISVDSLDFTKKILHTAWHPAENIIAIAATNNLYIFQDKVNSDMH", "values": [
      {"measurement": "binding", "result": "binds"}
    ]}
  ]
}
